Experimental findings from publication PMC5656747 are described below.

The chains behind the UniProt entries cited, without tags or fusion partners.
UniProt O15169: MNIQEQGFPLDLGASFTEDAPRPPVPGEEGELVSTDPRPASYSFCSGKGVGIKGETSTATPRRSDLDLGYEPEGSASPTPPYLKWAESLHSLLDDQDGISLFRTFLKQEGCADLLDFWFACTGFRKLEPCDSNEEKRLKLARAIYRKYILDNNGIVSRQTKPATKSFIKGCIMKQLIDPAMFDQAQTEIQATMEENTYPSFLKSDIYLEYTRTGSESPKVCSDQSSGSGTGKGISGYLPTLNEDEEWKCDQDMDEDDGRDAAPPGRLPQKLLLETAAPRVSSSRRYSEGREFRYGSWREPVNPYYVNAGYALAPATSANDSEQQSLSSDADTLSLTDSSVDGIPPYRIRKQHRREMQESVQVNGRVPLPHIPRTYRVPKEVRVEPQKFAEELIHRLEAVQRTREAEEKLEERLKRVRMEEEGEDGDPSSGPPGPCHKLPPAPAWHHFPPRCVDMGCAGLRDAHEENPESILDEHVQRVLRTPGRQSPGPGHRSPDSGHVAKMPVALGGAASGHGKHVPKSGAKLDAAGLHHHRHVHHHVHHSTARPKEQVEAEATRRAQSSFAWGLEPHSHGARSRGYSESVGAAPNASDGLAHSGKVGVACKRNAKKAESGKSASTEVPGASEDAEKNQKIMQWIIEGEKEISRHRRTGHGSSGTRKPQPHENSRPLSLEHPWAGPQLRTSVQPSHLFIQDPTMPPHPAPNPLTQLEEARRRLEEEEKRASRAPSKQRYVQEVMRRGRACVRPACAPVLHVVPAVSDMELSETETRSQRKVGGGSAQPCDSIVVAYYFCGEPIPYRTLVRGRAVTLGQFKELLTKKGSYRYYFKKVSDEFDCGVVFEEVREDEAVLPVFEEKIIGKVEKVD
UniProt Q93009: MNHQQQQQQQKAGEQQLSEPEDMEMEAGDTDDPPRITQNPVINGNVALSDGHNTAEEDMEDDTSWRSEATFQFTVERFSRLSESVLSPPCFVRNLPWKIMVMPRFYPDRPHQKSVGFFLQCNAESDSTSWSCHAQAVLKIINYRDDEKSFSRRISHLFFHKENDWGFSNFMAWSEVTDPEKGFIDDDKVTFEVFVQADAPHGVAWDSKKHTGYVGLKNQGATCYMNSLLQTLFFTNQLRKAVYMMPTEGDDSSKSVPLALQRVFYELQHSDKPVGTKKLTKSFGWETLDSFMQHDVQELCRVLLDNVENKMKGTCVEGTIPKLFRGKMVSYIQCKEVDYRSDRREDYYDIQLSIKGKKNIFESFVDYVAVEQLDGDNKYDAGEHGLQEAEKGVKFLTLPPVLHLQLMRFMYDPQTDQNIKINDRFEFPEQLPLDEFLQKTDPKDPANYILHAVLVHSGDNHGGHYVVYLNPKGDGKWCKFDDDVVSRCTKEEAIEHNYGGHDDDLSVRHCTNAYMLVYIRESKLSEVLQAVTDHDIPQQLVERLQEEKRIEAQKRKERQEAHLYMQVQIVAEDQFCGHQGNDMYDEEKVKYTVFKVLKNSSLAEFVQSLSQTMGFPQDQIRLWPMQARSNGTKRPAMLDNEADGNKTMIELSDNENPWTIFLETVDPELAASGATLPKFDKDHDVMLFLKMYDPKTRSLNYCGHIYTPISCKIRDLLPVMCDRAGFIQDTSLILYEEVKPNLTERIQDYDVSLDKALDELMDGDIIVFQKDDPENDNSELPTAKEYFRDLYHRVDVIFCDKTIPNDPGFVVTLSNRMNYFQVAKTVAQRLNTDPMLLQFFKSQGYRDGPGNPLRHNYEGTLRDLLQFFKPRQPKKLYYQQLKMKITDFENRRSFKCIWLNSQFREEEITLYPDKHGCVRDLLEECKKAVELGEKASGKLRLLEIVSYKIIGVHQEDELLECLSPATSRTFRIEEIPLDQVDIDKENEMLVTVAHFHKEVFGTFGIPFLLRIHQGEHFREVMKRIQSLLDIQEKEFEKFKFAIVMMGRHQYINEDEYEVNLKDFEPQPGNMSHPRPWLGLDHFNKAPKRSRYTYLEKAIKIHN
UniProt P35222: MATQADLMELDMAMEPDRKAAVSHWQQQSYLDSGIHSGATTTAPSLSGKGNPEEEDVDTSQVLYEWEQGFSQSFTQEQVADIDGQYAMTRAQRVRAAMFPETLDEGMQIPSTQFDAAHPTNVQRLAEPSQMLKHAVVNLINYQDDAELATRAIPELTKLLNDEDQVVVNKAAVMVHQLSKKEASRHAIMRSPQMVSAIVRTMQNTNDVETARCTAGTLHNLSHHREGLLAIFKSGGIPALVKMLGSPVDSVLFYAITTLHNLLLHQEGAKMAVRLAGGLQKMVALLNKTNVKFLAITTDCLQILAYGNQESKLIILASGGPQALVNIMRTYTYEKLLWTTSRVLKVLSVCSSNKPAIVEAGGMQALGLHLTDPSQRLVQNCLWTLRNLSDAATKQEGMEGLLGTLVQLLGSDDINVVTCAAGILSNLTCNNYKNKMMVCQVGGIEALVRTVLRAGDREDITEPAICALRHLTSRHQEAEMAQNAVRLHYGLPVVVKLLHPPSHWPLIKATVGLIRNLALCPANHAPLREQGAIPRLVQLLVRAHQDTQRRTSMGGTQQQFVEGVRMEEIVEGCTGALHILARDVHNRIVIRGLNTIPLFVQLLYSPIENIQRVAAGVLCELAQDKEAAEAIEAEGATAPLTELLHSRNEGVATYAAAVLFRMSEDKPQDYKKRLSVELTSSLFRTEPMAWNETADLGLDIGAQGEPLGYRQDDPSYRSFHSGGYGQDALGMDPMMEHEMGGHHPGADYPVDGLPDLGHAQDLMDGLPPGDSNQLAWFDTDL

Assay [1] addresses AXIN1 (human (endogenous in HEK293T)) (UniProt O15169). The assay is described as follows: co-IP; endogenous AXIN1 immunoprecipitated with AXIN1-specific antibody from HEK293T WT and CRISPR-targeted APC-truncated lines (also APC4 with RNF220 or USP7 CRISPR targeting); cells pre-treated with 10 μM MG132 for 4 hr; western blot. In general terms: In western blotting, separated proteins are transferred to a membrane and probed.

The target is the same in assay [2]. The assay is described as above. This is another data set of the same source.

Like-named read-outs stand apart in the source and are kept apart here. No constants are given. Whether binding was seen depends on the method and setting. In cells and extracts the contact can be indirect. Some binding calls cover weakened binding; strength is not graded here.

“USP7 (ubiquitin-specific peptidase 7) (from UniProt Q93009 1-1102) (enzyme)”: the binding entry in assay [1] is reported as “binds”. Consider β-catenin (from UniProt P35222 1-781), for which the binding result in assay [1] is reported as “binds”.

B1: E3 ligase RNF220 (protein, UniProt Q5VTB9 1-566)
chain: MDLHRAAFKMENSSYLPNPLASPALMVLASTAEASRDASIPCQQPRPFGVPVSVDKDVHIPFTNGSYTFASMYHRQGGVPGTFANRDFPPSLLHLHPQFAPPNLDCTPISMLNHSGVGAFRPFASTEDRESYQSAFTPAKRLKNCHDTESPHLRFSDADGKEYDFGTQLPSSSPGSLKVDDTGKKIFAVSGLISDREASSSPEDRNDRCKKKAAALFDSQAPICPICQVLLRPSELQEHMEQELEQLAQLPSSKNSLLKDAMAPGTPKSLLLSASIKREGESPTASPHSSATDDLHHSDRYQTFLRVRANRQTRLNARIGKMKRRKQDEGQREGSCMAEDDAVDIEHENNNRFEEYEWCGQKRIRATTLLEGGFRGSGFIMCSGKENPDSDADLDVDGDDTLEYGKPQYTEADVIPCTGEEPGEAKEREALRGAVLNGGPPSTRITPEFSKWASDEMPSTSNGESSKQEAMQKTCKNSDIEKITEDSAVTTFEALKARVRELERQLSRGDRYKCLICMDSYSMPLTSIQCWHVHCEECWLRTLGAKKLCPQCNTITAPGDLRRIYL
Take B1: the binding entry in assay [2] is recorded as “no binding”.
